Assay results taken from US20080132679A1 (KANEKA, published 2008).
These are yes or no findings as the source states them, for the method shown. Some entries that bind do so weakly or less than the wild type.

By UniProt entry, the sequences of proteins in these tests, tags left out. Residues count along the entry.
UniProt P06213, residues 28-956: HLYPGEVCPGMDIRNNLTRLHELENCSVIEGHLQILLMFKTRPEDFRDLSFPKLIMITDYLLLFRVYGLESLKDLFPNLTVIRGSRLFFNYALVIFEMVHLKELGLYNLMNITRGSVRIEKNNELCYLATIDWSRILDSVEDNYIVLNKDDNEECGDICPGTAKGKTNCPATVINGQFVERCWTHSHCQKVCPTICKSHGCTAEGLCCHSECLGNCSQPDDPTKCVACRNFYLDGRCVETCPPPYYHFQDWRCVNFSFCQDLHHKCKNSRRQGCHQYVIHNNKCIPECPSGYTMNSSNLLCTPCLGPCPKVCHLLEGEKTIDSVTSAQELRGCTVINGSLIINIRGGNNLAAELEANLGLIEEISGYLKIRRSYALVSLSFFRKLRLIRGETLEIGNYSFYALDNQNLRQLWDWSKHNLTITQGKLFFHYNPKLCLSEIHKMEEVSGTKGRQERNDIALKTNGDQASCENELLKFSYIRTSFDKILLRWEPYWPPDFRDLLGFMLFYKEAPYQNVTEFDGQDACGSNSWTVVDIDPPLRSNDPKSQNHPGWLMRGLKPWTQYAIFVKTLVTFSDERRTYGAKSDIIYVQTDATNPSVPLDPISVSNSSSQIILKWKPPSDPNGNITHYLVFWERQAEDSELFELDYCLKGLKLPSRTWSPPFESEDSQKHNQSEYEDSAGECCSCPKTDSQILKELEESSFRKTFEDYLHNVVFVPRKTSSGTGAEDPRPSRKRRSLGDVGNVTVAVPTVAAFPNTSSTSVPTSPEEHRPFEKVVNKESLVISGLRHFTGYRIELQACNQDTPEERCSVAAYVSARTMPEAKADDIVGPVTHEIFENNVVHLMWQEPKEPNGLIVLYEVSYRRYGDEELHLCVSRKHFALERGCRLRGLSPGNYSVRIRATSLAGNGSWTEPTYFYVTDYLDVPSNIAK

Molecular target: Recombinant Human Insulin Receptor (28-956) (human) (UniProt P06213)
Assay: SPR (BIAcore), Examples 8 to 10

Binder	binding
CASDIVEGLYIVLAER (Chemically synthesized by the Fmoc method; immobilized on a CM5 sensor chip by amine coupling (200 RU) for the Biacore assay; also called Peptide 14) [peptide P14]	binds
CASDIVEGIYL (Chemically synthesized; immobilized on a CM5 sensor chip by amine coupling (130 RU) for the Biacore assay; also called Peptide 15) [peptide P15]	binds
CQHILGSDIVEGIYL (Chemically synthesized; immobilized on a CM5 sensor chip by amine coupling (270 RU) for the Biacore assay; also called Peptide 21) [peptide P21]	binds
